Measurements: the supplement of paper PMC10849652
Some of the results follow.

The chains behind the UniProt entries cited, without tags or fusion partners. Where a name states a change or a piece, a line headed by the entry shows the natural chain unless it says otherwise.
UniProt P17535: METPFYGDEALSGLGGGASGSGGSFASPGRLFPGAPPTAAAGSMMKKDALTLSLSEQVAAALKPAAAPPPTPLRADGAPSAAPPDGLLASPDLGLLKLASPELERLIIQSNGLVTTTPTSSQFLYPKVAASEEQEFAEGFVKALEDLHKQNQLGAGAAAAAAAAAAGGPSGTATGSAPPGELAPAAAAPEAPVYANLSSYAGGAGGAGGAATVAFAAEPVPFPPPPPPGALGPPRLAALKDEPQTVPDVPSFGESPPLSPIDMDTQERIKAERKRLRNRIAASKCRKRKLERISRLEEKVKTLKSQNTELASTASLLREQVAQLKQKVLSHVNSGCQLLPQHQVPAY
UniProt O75449: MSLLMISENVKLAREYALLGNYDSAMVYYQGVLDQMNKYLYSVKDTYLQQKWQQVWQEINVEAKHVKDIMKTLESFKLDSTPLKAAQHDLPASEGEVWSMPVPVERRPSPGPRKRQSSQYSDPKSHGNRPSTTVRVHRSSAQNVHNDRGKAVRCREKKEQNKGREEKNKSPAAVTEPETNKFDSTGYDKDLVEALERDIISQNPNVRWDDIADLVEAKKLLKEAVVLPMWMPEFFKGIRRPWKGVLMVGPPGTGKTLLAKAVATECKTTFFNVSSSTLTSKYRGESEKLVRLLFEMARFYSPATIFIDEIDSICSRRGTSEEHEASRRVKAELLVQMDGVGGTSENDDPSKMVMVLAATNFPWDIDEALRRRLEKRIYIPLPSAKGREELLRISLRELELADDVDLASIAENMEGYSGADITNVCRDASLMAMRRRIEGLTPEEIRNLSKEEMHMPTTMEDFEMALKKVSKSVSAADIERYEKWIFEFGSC
UniProt Q07666, whole entry, looked up: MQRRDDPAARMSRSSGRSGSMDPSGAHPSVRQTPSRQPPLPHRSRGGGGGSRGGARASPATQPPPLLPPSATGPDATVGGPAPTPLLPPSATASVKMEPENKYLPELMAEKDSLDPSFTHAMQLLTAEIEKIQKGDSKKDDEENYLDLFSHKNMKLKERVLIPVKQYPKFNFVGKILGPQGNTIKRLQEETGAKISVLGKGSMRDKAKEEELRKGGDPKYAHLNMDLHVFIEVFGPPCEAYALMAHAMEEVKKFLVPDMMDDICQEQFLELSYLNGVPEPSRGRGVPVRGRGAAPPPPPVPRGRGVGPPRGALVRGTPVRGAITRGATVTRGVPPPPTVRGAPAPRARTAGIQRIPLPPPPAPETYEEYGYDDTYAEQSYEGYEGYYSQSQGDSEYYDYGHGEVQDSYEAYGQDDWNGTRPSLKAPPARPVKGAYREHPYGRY
UniProt Q7L273: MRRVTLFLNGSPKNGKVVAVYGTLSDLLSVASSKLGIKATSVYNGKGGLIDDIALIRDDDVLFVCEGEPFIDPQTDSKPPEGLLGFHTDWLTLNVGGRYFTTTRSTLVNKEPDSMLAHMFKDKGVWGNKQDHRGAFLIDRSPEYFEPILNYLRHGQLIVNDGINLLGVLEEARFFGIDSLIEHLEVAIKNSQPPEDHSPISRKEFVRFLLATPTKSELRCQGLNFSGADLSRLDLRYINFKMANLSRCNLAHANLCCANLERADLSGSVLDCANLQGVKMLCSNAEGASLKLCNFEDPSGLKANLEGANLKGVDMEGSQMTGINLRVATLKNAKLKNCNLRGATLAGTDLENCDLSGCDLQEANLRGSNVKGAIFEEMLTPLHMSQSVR
UniProt Q9NXV2: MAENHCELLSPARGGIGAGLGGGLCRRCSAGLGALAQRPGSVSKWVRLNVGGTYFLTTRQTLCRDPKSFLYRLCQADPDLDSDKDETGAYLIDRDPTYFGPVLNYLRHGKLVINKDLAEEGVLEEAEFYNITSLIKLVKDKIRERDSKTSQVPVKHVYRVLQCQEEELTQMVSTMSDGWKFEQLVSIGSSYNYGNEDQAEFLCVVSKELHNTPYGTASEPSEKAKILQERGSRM
UniProt Q9NVR0: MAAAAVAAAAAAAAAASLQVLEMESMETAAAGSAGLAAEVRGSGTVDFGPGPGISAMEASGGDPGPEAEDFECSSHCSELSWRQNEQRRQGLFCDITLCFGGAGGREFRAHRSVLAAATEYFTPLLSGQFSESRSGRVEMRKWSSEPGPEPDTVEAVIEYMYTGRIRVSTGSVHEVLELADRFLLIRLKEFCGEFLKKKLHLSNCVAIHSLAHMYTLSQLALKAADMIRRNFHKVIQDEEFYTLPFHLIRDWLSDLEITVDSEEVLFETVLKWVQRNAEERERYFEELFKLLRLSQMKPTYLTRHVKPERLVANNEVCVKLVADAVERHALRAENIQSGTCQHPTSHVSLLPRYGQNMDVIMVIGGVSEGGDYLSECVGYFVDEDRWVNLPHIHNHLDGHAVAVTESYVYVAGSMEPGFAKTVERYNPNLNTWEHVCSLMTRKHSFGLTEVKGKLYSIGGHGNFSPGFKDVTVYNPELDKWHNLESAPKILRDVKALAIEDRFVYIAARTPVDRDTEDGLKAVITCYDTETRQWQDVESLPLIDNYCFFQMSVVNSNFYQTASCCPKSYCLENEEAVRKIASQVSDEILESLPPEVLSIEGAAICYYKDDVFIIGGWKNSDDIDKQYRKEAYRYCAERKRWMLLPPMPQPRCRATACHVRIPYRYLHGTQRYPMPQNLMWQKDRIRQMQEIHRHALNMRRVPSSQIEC
UniProt Q7LBC6: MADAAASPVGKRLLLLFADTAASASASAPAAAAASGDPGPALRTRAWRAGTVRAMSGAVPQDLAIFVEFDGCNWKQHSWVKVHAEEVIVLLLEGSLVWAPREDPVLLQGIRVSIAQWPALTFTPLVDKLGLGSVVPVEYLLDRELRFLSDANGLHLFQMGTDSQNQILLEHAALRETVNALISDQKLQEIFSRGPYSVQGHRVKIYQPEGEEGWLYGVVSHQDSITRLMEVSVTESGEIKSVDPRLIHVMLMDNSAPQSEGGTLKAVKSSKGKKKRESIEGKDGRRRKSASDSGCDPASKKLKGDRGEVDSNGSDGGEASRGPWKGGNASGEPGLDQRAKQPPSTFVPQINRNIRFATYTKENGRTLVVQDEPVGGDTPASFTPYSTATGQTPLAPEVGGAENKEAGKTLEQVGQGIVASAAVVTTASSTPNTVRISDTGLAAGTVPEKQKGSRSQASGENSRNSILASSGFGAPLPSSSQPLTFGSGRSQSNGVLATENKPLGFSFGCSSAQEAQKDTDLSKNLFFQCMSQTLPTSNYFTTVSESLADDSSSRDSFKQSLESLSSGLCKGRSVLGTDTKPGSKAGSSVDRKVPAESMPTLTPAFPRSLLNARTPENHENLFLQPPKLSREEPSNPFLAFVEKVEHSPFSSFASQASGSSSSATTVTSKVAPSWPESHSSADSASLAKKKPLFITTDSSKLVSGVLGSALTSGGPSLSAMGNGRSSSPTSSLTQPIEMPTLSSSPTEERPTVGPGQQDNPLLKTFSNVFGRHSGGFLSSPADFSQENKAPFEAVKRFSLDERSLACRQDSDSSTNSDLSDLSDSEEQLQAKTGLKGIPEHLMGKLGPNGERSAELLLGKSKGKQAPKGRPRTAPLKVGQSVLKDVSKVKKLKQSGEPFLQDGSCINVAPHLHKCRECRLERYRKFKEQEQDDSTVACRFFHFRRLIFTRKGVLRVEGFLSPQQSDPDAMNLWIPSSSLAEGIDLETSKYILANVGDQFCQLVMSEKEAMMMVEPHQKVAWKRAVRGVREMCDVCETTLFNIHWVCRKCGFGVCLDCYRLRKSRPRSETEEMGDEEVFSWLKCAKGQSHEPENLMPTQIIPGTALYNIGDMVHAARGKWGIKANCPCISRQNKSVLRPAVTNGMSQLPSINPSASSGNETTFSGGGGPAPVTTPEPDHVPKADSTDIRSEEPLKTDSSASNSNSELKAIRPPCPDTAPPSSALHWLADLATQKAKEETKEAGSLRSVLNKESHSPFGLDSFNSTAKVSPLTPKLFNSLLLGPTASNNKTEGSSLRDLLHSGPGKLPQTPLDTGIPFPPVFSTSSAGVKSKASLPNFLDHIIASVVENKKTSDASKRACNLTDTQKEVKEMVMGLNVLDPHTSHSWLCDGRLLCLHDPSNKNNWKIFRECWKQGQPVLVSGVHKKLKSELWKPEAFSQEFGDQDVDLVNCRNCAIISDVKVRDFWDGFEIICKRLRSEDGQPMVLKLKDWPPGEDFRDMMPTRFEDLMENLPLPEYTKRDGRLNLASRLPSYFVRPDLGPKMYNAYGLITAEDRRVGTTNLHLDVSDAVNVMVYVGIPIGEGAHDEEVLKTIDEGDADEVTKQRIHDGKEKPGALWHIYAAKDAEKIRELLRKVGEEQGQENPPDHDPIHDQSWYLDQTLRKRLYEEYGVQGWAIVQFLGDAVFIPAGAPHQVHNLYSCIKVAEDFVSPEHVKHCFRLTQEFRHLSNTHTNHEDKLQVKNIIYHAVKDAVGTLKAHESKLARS
UniProt Q96SI1: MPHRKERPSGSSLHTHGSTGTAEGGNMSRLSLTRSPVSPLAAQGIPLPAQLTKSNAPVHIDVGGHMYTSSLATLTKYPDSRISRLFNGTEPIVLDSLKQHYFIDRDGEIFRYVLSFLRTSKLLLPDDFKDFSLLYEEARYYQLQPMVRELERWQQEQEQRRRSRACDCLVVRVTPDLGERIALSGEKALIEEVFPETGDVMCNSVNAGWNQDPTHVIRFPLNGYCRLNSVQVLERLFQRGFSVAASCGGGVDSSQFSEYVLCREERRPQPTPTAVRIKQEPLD
UniProt P24390: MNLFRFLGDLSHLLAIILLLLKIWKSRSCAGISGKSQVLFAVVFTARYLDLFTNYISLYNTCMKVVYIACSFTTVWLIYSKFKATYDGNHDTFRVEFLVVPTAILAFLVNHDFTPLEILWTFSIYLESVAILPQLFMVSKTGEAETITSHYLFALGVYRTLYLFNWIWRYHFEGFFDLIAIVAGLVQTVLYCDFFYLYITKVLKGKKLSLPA
UniProt Q7Z4S6: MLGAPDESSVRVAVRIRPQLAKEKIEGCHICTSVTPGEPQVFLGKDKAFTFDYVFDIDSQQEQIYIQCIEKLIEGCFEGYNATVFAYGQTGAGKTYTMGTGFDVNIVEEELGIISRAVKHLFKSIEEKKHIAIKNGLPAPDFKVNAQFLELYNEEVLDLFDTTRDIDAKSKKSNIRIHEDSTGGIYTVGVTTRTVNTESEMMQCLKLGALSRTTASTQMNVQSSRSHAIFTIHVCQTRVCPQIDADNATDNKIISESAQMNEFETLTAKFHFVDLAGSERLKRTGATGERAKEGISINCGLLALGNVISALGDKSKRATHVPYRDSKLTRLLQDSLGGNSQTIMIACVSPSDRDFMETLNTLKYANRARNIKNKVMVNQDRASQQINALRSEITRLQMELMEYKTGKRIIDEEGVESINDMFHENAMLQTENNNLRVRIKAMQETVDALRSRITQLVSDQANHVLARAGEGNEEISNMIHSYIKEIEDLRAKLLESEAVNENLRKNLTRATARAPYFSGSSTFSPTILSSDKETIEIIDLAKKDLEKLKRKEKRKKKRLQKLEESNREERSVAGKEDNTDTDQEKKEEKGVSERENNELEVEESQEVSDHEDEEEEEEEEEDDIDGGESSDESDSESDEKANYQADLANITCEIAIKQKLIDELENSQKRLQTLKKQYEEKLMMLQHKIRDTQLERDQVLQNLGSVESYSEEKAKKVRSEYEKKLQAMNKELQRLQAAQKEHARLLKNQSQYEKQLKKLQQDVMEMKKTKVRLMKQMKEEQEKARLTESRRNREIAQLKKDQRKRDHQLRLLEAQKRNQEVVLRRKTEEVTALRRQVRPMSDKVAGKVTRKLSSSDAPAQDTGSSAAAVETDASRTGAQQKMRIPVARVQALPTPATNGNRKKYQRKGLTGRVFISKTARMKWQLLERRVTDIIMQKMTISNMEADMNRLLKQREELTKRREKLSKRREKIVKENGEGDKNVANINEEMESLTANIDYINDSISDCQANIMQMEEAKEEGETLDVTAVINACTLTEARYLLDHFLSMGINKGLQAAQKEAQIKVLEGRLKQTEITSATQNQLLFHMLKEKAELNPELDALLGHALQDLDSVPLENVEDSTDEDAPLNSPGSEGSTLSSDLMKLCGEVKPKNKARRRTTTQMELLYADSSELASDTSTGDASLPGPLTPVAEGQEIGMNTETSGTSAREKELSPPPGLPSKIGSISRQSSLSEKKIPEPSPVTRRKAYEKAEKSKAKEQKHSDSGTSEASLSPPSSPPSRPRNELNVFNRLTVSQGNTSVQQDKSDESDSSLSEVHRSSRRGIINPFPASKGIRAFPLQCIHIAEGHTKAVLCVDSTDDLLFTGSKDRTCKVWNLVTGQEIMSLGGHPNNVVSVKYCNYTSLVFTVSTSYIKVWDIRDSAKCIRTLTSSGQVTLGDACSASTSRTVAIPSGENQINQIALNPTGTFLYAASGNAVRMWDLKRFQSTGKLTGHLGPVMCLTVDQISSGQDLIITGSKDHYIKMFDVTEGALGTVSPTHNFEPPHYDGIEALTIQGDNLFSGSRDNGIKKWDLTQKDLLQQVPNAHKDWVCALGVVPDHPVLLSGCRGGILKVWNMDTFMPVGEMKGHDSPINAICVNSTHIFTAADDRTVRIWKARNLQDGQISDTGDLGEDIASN

Columns and labels:
Experiment in all cases: log2 fold change, soluble protein after heating vs DMSO (PISA); higher = thermal stabilisation; K562 cells, 10 uM, 30 min; active = over 0.2 and 3.5 SD of the protein, either way, in both replicates (recomputed)
[1] = compound: CC[C@@H]1C(=O)N(C)c2cnc(Nc3ccc(C(=O)NC4CCN(C)CC4)cc3OC)nc2N1C1CCCC1
Procedure, shortened: (§1)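 Aliquots of K562 cells (2×10^6 cells/mL) treated with 10 μM compound for 30 min were heated for 3 min over 48°C-58°C. After pooling and extraction in PBS with 0.5% NP-40 at 4°C, soluble protein from a 21,000xg, 90 min spin was quantified by TMTpro 16plex LC-MS/MS with channel sums equalised. Thermal stability is expressed against control samples, from duplicates, as a log2 fold change.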

volasertib = compound: CC[C@@H]1C(=O)N(C)c2cnc(Nc3ccc(C(=O)N[C@H]4CC[C@H](N5CCN(CC6CC6)CC5)CC4)cc3OC)nc2N1C(C)C [volasertib]
Procedure, shortened: as §1

[2] = compound: CC[C@H](C)N1C=C(C2=C(C=C(C=C21)C3=CN=C(C=C3)N4CCNCC4)C(=O)NCC5=C(C=C(NC5=O)C)C)C
Procedure, shortened: as §1

epoxomicin = compound: CC[C@H](C)[C@@H](C(=O)N[C@@H]([C@@H](C)O)C(=O)N[C@@H](CC(C)C)C(=O)[C@]1(CO1)C)NC(=O)[C@H]([C@@H](C)CC)N(C)C(=O)C [epoxomicin]
Procedure, shortened: as §1

[3] = compound: CCn1c(C(=O)N(C2CC2)C2CC2)cc2c3c(ncn3C)c(Nc3cc(C)n(C)n3)nc21
Procedure, shortened: as §1

[4] = compound: CCn1cc(-c2ccnc3[nH]c(-c4cccc(CN(C)C)c4)cc23)c(-c2ccc(NC(=O)N(C)C)cc2)n1
Procedure, shortened: as §1

[5] = compound: CN(C)CC(=O)Nc1ccc2[nH]c(=O)c3ccccc3c2c1
Procedure, shortened: as §1

rosiglitazone = compound: CN(CCOC1=CC=C(C=C1)C[C@H]2C(=O)NC(=O)S2)C3=CC=CC=N3 (racemic) [rosiglitazone]
Procedure, shortened: as §1

[6] = compound: CN1C2=C(C3=C1C(=O)N(N=C3)CC4=CC(=CC=C4)N)SC(=C2)S(=O)C
Procedure, shortened: as §1

[7] = compound: CN1CCC(CNc2ccc3ncc(-c4cccc(OC(F)(F)F)c4)n3n2)CC1
Procedure, shortened: as §1

Measured: log2 fold change

JUND (UniProt P17535)
inactive: [1] 0.129 | volasertib 0.085 | [2] -0.071 | epoxomicin -0.031 | [3] 0 | [4] 0.057 | [5] -0.089 | rosiglitazone 0.015 | [6] 0.035 | [7] 0.167

KLC1 isoform 6 (UniProt Q07866)
inactive: [1] 0.016 | volasertib 0.025 | [2] 0.016 | epoxomicin 0.068 | [3] 0.01 | [4] -0.026 | [5] 0.008 | rosiglitazone 0.012 | [6] -0.039 | [7] -0.054

KATNA1 (UniProt O75449)
inactive: [1] 0.14 | volasertib -0.078 | [2] -0.06 | epoxomicin -0.048 | [3] 0.023 | [4] -0.029 | [5] -0.018 | rosiglitazone 0.089 | [6] -0.003 | [7] 0.052

KHDRBS1 (UniProt Q07666)
inactive: [1] 0.148 | volasertib 0.106 | [2] 0.074 | epoxomicin -0.029 | [4] -0.096 | [5] -0.007 | [6] -0.04 | [7] 0.116

KCTD9 (UniProt Q7L273)
inactive: [1] 0.01 | volasertib 0.005 | [2] 0.012 | epoxomicin 0.145 | [3] -0.07 | [4] -0.016 | [5] -0.032 | rosiglitazone -0.003 | [6] 0.046 | [7] 0.001

KCTD5 (UniProt Q9NXV2)
inactive: [1] -0.089 | volasertib -0.075 | [2] -0.086 | epoxomicin 0.07 | [3] -0.001 | [4] -0.031 | [5] -0.007 | rosiglitazone -0.008 | [6] -0.057 | [7] -0.018

KLHL11 (UniProt Q9NVR0)
inactive: [1] -0.104 | volasertib -0.062 | [2] -0.064 | epoxomicin -0.043 | [3] 0.099 | [4] 0.042 | [5] 0.018 | rosiglitazone 0.053 | [6] -0.04 | [7] -0.034

KDM3B (UniProt Q7LBC6)
inactive: [1] -0.164 | [2] 0.06 | epoxomicin 0.061 | [4] 0.001 | [5] 0.043 | [6] -0.049 | [7] -0.071
active: volasertib -0.349

KCNK1 (UniProt O00180)
inactive: [1] 0.063 | volasertib 0.036 | [2] 0.012 | epoxomicin 0.051 | [3] -0.174 | [4] -0.069 | rosiglitazone -0.213 | [6] 0.027 | [7] 0.073

KBTBD8 (UniProt Q8NFY9)
inactive: [1] 0.071 | volasertib 0.241 | [2] 0.065 | epoxomicin 0.038 | [4] 0.167 | [5] -0.033 | rosiglitazone 0.106 | [6] 0.018 | [7] -0.095

KCTD15 (UniProt Q96SI1)
inactive: [1] 0.099 | volasertib 0.038 | [2] 0.019 | epoxomicin 0.088 | [3] -0.002 | [4] 0.016 | [5] -0.008 | rosiglitazone -0.028 | [6] -0.012 | [7] -0.04

KPNB1 (UniProt Q14974)
inactive: [1] -0.105 | [2] 0.04 | epoxomicin 0.04 | [4] 0.016 | [5] 0.048 | [6] 0.102 | [7] -0.212
active: volasertib -0.432

KSR1 (UniProt Q8IVT5)
active: [7] -0.878
inactive: [1] -0.11 | volasertib -0.182 | [2] 0.179 | epoxomicin 0.047 | [4] 0.178 | [5] 0.009 | [6] -0.05

2 entries picked at random from those above, as already listed:
KLHL11 (UniProt Q9NVR0)
inactive: [1] -0.104 | volasertib -0.062 | [2] -0.064 | epoxomicin -0.043 | [3] 0.099 | [4] 0.042 | [5] 0.018 | rosiglitazone 0.053 | [6] -0.04 | [7] -0.034

KHDRBS1 (UniProt Q07666)
inactive: [1] 0.148 | volasertib 0.106 | [2] 0.074 | epoxomicin -0.029 | [4] -0.096 | [5] -0.007 | [6] -0.04 | [7] 0.116

Additional results

KDELR1 (UniProt P24390)
inactive: [1] 0.049 | volasertib 0.118 | [2] 0.17 | epoxomicin 0.022 | [3] -0.108 | rosiglitazone -0.113 | [6] -0.099

KIF21A isoform 4 (UniProt Q7Z4S6)
inactive: [1] 0.073 | volasertib -0.019 | [2] 0.038 | epoxomicin 0.066 | [4] -0.121 | [5] 0.013 | [6] 0.054 | [7] 0.076

KIF2C (UniProt Q99661)
active: volasertib -0.357
inactive: [1] -0.037 | [2] 0.084 | epoxomicin 0.019 | [4] -0.063 | [5] 0.09 | [6] 0.003 | [7] -0.06
